From US20190055563

Protein sequences, listed by entry. Tags and fused reporters are not part of them. Residues count along the entry.
UniProt O75417, 1-1000, stated change not applied: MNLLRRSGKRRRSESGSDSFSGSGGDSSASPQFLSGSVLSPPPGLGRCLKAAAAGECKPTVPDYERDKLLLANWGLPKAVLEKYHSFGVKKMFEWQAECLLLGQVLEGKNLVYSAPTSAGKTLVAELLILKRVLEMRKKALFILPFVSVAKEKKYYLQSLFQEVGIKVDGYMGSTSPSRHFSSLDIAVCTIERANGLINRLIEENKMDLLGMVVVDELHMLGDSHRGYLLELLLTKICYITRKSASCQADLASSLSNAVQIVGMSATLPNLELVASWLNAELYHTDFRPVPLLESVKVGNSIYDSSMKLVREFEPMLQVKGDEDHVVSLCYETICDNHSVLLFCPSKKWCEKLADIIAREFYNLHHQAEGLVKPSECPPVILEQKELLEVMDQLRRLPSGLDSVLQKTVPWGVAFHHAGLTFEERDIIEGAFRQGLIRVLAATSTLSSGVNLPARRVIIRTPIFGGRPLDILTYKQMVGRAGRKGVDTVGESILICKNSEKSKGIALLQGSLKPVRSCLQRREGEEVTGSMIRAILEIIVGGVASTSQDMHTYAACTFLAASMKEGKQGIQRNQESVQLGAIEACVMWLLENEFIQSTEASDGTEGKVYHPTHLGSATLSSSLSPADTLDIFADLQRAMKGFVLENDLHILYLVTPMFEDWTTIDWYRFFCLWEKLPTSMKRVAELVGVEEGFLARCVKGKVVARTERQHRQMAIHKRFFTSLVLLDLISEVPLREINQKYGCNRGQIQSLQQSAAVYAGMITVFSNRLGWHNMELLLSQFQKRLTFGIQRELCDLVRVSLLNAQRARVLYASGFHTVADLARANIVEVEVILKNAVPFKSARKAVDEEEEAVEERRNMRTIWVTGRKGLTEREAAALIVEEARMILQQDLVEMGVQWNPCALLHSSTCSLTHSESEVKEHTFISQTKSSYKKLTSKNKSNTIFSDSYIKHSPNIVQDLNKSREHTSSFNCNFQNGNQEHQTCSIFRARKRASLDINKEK

Target: POLQ ΔPol2 (amino acids 1-1000) (Homo sapiens) (UniProt O75417)
Assay: activity assay
Details: ADP-Glo ATPase, 10 nM enzyme, 600 nM ssDNA, 100 uM ATP, room temperature; values in figure; 30-mer sequence from p104; purified recombinant protein; protein details: C-terminal Flag, SF9 baculovirus; single-stranded DNA

## GTTAGCAGGTACCGAGCAACAATTCACTGG [30-mer ssDNA substrate]
  activity on this sequence: active
